Paper PMC10367558
No constants are given. Whether binding was seen depends on the method and setting. Binding seen in cells or lysates may run through a third protein. Some results given as binding are weak or reduced against the parent protein; the word gives no strength.

Sequences of proteins named here, by UniProt entry; tags and fusion partners are left off.
UniProt P40763: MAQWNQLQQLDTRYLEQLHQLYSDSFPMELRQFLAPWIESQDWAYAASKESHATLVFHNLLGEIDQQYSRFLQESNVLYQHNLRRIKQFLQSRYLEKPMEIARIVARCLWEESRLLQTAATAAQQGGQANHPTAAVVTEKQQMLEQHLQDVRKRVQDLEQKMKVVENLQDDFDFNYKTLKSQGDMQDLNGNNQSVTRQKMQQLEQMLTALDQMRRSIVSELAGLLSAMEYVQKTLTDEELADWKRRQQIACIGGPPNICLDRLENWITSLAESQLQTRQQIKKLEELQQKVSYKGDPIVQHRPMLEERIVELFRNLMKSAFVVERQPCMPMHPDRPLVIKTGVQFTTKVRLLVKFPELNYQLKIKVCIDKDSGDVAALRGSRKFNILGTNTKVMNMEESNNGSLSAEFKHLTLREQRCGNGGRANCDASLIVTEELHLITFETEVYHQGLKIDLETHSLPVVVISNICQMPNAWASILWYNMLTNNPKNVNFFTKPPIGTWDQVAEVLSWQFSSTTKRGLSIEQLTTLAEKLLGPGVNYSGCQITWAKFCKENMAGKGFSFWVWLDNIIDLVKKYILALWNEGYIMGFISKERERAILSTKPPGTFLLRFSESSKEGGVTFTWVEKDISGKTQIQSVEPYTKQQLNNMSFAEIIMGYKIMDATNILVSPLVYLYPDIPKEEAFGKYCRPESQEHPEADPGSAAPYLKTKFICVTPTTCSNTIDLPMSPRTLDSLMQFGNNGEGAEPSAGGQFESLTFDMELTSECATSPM
UniProt O00311: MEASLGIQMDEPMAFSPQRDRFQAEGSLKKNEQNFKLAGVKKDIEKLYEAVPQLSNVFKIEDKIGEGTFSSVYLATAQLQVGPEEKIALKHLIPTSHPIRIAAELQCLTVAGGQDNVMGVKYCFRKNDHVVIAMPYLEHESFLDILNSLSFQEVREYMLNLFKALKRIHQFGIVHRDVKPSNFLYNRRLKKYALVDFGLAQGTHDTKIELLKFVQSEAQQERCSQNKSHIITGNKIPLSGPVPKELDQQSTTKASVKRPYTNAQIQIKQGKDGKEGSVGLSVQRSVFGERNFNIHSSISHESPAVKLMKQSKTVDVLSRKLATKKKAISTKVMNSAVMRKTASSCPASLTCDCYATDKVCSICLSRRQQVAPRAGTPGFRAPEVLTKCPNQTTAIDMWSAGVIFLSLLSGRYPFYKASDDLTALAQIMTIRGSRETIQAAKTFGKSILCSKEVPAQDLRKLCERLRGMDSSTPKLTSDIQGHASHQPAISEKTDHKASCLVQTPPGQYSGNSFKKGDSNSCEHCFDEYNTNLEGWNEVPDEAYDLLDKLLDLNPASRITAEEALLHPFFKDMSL
UniProt O14980: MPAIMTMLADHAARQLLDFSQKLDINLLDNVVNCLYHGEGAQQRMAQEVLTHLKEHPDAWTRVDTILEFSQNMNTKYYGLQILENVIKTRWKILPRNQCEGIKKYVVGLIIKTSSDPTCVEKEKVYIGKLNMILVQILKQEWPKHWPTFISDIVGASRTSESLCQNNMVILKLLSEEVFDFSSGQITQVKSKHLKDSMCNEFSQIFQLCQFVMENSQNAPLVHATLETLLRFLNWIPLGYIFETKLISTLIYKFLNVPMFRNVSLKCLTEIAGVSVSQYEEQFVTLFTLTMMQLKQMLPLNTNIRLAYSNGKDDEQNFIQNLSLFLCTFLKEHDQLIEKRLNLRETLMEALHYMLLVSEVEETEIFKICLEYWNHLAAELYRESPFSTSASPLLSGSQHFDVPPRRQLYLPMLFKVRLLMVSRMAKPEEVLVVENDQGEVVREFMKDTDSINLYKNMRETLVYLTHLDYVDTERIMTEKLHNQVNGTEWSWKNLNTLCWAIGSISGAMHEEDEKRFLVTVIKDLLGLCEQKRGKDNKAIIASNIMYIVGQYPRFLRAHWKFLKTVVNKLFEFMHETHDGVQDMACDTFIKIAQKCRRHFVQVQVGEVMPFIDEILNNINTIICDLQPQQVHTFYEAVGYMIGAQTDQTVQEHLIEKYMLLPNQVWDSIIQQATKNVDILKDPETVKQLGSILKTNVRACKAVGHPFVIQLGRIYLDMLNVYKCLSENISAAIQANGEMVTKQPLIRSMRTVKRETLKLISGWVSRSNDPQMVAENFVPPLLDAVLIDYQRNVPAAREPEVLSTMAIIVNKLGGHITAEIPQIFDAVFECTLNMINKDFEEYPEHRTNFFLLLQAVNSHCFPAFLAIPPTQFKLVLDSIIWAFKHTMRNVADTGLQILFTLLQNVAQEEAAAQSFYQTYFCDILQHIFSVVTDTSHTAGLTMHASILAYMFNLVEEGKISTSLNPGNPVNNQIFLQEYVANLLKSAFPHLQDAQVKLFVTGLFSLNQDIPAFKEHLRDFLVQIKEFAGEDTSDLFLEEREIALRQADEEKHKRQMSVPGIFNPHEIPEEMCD

Assays:
[1] = target: Signal transducer and activator of transcription 3 (STAT3) (human (endogenous in HCCLM3 and MHCC97H)) (UniProt P40763); assay: proximity ligation; Duolink proximity ligation assay in HCCLM3 cells with anti-CDC7 and anti-STAT3 antibodies; endogenous proteins
[2] = target: Signal transducer and activator of transcription 3 (STAT3) (human (endogenous in HCCLM3 and MHCC97H)) (UniProt P40763); assay: co-IP; endogenous proteins; cytoplasmic and nuclear fractions of MHCC97H cells transfected with siRNAs targeting XPO1 were separated and immunoprecipitated
[3] = target: Signal transducer and activator of transcription 3 (STAT3) (human (endogenous in HCCLM3 and MHCC97H)) (UniProt P40763); assay: co-IP; endogenous proteins from whole cell lysates of HCC cells (HCCLM3, MHCC97H); Dynabeads Co-Immunoprecipitation Kit, antibody or IgG on beads, lysate incubated at 4°C for 30 minutes; also in cells with DBF4 depletion, or treated with TNF-α and selinexor
[4] = target: Cell division cycle 7 (CDC7) (human (endogenous in HCCLM3 and MHCC97H)) (UniProt O00311); assay: as above
[5] = target: T1, Dumbbell former 4 (DBF4) (human (endogenous in HCCLM3 and MHCC97H)) (UniProt Q9UBU7); assay: as above
T1 sequence: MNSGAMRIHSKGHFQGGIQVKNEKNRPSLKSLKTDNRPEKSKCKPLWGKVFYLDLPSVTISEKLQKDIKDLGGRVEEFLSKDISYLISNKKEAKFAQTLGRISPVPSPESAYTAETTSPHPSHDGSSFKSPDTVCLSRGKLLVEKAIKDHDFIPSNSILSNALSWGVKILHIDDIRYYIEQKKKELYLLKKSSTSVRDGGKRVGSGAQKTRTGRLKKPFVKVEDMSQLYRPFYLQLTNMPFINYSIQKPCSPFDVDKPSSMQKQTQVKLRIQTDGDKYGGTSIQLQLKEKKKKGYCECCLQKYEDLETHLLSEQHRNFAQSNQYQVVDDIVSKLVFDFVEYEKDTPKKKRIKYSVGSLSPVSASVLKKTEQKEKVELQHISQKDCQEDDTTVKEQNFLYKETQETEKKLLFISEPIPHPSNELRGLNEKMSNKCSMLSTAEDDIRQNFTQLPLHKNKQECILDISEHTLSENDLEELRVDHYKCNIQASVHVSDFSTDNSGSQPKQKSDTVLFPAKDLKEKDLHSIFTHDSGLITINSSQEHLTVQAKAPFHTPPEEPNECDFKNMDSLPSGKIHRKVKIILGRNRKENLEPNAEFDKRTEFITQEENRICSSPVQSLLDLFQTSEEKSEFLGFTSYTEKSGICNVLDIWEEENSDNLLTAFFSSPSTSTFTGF

[6] = target: Myc-tagged CDC7 (UniProt O00311); assay: co-IP; HEK293T cells cotransfected with Myc-CDC7 and HA-STAT3 (whole or truncated); immunoprecipitated with anti-Myc antibody, blot with anti-HA; also with TNF-α and selinexor treatment
[7] = target: HA-tagged STAT3 (UniProt P40763); assay: co-IP; HEK293T cells transfected with the indicated expressing plasmids (Flag-DBF4, STAT3, CDC7 wild type or D196N); precipitating antibody not told
[8] = target: HA-tagged STAT3 (UniProt P40763); assay: co-IP; HEK293T cells transfected with Myc-CDC7 and/or HA-STAT3; whole cell lysates immunoprecipitated with anti-HA antibody, IgG as negative control; blot with anti-Myc and anti-HA

Question: For “Cell division cycle 7 (CDC7) (from UniProt O00311 1-574) (enzyme)”, which binding [1] is on record?
Answer: Its binding is “binds”.

Question: And the binding [2]?
Answer: The binding was “binds”.

Question: And the binding [3]?
Answer: Its binding is “binds”.

Question: For “Exportin 1 (XPO1) (from UniProt O14980 1-1071)”, which binding [4] is on record?
Answer: Its binding is “binds”.

Question: And the binding [5]?
Answer: The binding was “binds”.

Question: For “HA-tagged STAT3 (from UniProt P40763 1-770)”, which binding [6] is on record?
Answer: The binding was “binds”.

Question: “Myc-tagged CDC7 (from UniProt O00311 1-574) (enzyme)” was tested. Which binding [7] did it give?
Answer: The binding was “binds”.

Question: And the binding [8]?
Answer: The binding was “binds”.
